Reference: patent publication US5696229A, “Polypeptide with laminin cell adhesion and morphogenesis activity” (The University of Virginia Patent Foundation, priority 1995, dated 1997)
Several values for one entry are separate records, joined by “and”; a condition that tells them apart may be missing. Equal values may be shown once. Entries after “also recorded” stand apart in the source; their conditions may differ. At least one peptide structure holds a part that was inferred or is arguable (an end, a ring closure or a residue). Peptide text beside a SMILES is read from it.

Protein sequences, listed by entry. Tags and fused reporters are not part of them. Residues count along the entry.
UniProt P09055, 21-798: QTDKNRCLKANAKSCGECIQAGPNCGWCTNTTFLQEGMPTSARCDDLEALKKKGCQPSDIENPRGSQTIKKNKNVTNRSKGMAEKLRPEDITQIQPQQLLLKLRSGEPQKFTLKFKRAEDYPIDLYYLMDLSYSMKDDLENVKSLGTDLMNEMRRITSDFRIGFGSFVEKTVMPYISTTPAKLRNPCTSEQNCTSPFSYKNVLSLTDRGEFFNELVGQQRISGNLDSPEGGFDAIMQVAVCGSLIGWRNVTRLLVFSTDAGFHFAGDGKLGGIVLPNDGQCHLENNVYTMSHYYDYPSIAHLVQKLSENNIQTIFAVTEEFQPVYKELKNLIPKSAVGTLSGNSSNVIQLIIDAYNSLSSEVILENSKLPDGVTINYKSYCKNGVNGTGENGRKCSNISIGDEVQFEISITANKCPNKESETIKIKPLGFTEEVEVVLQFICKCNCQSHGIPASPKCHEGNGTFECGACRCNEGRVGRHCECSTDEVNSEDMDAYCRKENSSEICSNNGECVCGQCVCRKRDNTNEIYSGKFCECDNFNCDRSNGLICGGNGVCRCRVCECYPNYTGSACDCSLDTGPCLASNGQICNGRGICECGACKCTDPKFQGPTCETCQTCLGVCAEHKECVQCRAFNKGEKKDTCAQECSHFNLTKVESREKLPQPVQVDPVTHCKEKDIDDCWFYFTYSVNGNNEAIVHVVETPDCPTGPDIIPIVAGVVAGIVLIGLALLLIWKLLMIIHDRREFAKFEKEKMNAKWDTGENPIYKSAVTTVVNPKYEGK
UniProt Q61739, 903-1091 limits assumed: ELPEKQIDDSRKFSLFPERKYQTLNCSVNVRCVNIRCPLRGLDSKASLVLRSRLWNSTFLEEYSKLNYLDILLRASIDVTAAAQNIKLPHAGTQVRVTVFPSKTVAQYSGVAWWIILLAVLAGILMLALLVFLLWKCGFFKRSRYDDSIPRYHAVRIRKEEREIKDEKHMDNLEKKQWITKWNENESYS
UniProt Q61739, 24-899 limits assumed: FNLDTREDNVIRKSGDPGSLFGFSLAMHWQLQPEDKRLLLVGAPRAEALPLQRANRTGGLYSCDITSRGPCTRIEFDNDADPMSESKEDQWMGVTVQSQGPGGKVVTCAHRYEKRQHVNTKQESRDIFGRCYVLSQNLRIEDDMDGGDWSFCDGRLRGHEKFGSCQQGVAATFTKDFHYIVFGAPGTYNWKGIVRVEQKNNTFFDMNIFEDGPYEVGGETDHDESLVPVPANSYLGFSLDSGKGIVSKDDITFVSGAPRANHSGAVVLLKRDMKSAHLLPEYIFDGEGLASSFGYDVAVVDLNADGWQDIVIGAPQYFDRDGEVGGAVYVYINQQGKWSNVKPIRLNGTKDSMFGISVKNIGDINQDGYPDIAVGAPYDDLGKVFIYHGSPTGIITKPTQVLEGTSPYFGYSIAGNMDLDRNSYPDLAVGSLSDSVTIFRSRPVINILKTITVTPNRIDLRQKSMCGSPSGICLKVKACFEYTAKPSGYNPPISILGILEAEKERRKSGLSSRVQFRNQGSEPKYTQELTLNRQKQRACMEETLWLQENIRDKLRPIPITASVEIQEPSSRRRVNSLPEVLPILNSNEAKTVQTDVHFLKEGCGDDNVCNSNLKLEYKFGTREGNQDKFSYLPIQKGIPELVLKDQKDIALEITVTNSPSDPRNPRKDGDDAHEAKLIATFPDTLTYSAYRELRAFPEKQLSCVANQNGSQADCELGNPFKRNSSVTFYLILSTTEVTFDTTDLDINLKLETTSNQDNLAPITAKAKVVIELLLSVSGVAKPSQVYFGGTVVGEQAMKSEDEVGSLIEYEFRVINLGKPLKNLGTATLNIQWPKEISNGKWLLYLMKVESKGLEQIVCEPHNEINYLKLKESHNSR

Assays:
type II alveolar cells [1] = assay: Cell adhesion studies, type II alveolar cells on coated plates (Example 1); assay type: cell-based, rat; conditions: coating 100 μM
Procedure: (§1) Plates coated overnight (4° C.) with equimolar amounts of laminin, laminin fragment, or synthetic peptide were blocked with 1% BSA (Sigma Chemical Co.) for 4 h (4° C.) and cells were subsequently added (2×10^4 /well) in serum-free media and incubated for 60 min (37° C.) according to the method of Aumailey and Timpl (1986). Inhibition studies were carried out by preincubating cells for 30 min (37°; gentle agitation every 5 min) with equimolar amounts of soluble fragment or peptide. Cells, together with soluble inhibitor, were then added to the coated plates. After a 60-min (37° C.) incubation, plates were washed twice with PBX, fixed with 1% glutarldehyde (Electron Microscopy Service Laboratories, Westmount, N.J.), PBS, washed, stained with 0.1% crystal violet (Serra Biochemicals, Hauppauge, N.Y.), washed twice with distilled water, solubilized in 0.5% Triton X-100 (Sigma Chemical Co.), and read on an ELISA plate reader (Molecular Devices Corp., Menio Park, Calif.) equipped with a 595-nm filter.

[2] = system: HT1080 human fibrosarcoma cells; assay: Cell adhesion studies, HT1080 cells on coated plates (Example 1); assay type: cell-based; conditions: for Percent cell attachment: HT1080 cells, substrate coated at 35 μM, mean ± SD
Procedure: as §1

type II alveolar cells [3] = assay type: cell-based, rat; conditions: preincubated with cells prior to plating on BMS; day five
Excerpt: Type II alveolar cells were isolated from 250-g Sprague Dawley rats (Hilltop Laboratory Animals, Inc.) according to the method of Rannels (Rannels and Rannels, 1988). Briefly, an initial cardiac perfusion with 0.9% saline was followed by instillation of the airways with 0.1% elastase (Calbiochem Corp., La Jolla, Calif.) in Joklik's modified minimal medium (JMEM) containing 0.05% BaSO4. Elastase was inactivated by instillation of JMEM containing soybean trypsin inhibitor (0.08%; Sigma Chemical Co., St. Louis, Mo.), DNase (0.08%. Sigman Chemical Co.), and 50% newborn calf serum (GIBCO BRL, Gaithersburg, Md.). […] The resultant type II alveolar cell preparations were 95% viable as determined by trypan blue exclusion; purity was 93% as assessed by the presence of lamellar bodies visible with Hoffman optics at a magnification of 40 and by tannic acid staining. […]
Freshly isolated type II alveolar cells were plated in 96-well plates at 20×10^3 cells/well on 500 μg/well (1.8 mg/cm^2) of gelled BMS of collagen I. Cells were cultured over 5 d with on media change performed on day three. Alveolar formation was analyzed at 24-h intervals over 5 d from photographic negatives (4×original magnification of central portion of each well) of triplicate wells. […] The area of cellular structures was then determined and expressed as the mean±standard deviation. […]

[4] = system: F9 mouse teratocarcinoma cells; assay type: cell-based
HT1080 cells = assay type: cell-based, human
α6 β1 = target: T1, α6 β1 (Mus musculus, UniProt P09055+Q61739); assay: SN-peptide affinity chromatography of biotinylated F9 cell surface extracts with GoH3 immunoprecipitation; assay type: binding; conditions: bound in Mn+2, eluted with EDTA; BSA column blank
T1 construct: Sn-peptide columns were incubated with biotinylated F9 cell surface extracts in the presence of Mn^+2; endogenous in cells; host or cells: mouse F9 cells (surface-biotinylated, detergent lysate)

| SMILES | Adhesion of type II alveolar cells to coated substrate (type II alveolar cells [1]) | Adhesion of HT1080 cells to coated peptide [2] | Percent cell attachment [2] | Inhibition of alveolar formation by soluble laminin fragment or peptide (type II alveolar cells [3]) | Coating solution concentration for maximal adhesion [4] | Cell spreading on coated substrate ([4]; not shown) | EC50 ([4]; read-out: Coating solution concentration for half-maximal adhesion) | Inhibition of HT1080 cell adhesion to SN-peptide ([2]; cells preincubated with inhibitor, coating and inhibitor 100 μM, EDTA 2 mM) | Inhibition of HT1080 cell adhesion to P1 fragment ([2]; coating and inhibitor 100 μM) | Inhibition of HT1080 cell adhesion to E8 fragment ([2]; equimolar soluble inhibitor) | Coating solution concentration for maximal adhesion (HT1080 cells; HT1080 cells) | Cell spreading on coated substrate (HT1080 cells; HT1080 cells, not shown) | EC50 (HT1080 cells; HT1080 cells, read-out: Coating solution concentration for half-maximal adhesion) | Difference in adhesion activity between SN-peptide and E8 (HT1080 cells; half-maximal coating values corrected for substrate actually absorbed) | Binding of α6 β1 to SN-peptide column (α6 β1) |
| --- | --- | --- | --- | --- | --- | --- | --- | --- | --- | --- | --- | --- | --- | --- | --- |
| CC[C@H](C)[C@H](NC(=O)[C@@H](N)CO)C(=O)N[C@@H](CC(N)=O)C(=O)N[C@@H](CC(N)=O)C(=O)N[C@@H](CC(N)=O)C(=O)N[C@@H](CCCNC(=N)N)C(=O)O [SINNNR] (H-SINNNR-OH) | at levels similar to E8 fragment or intact laminin | at levels similar to E8 fragment or intact laminin | 65 ± 0.09% | inhibitory | – | – | – | – | – | – | – | – | – | – | – |
| CC[C@H](C)[C@H](NC(=O)[C@H](CO)NC(=O)[C@H](Cc1c[nH]cn1)NC(=O)[C@H](Cc1c[nH]c2ccccc12)NC(=O)[C@H](CCCNC(=N)N)NC(=O)[C@H](CC(N)=O)NC(=O)[C@H](CC(N)=O)NC(=O)[C@H](CC(N)=O)NC(=O)[C@@H](NC(=O)[C@@H](N)CO)[C@@H](C)CC)C(=O)N[C@@H](Cc1ccc(O)cc1)C(=O)N[C@H](C(=O)N[C@H](C(=O)N[C@@H](CCCNC(=N)N)C(=O)N[C@@H](Cc1ccccc1)C(=O)NCC(=O)N[C@@H](CC(N)=O)C(=O)N[C@@H](CCSC)C(=O)NCC(=O)N[C@@H](CO)C(=O)O)[C@@H](C)O)[C@@H](C)CC [SN-peptide] (H-SINNNRWHSIYITRFGNMGS-OH) | at levels similar to E8 fragment or intact laminin; also recorded: Adhesion | at levels similar to E8 fragment or intact laminin | 76 ± 0.02% | inhibited alveolar formation in a dose dependent fashion | 25 µM | approximately 10% | 5 µM and 2.5 to 5 µM | inhibited | not to P1 fragment | completely inhibited | 25 µM | approximately 10% | 2.5 µM and 2.5 to 5 µM | 6 fold | binds |
